# Patent US20240018251A1 (BIOHENG THERAPEUTICS, published 2024)
# The chains behind the UniProt entries cited, without tags or fusion partners. Residues count along the entry.
# UniProt Q02223, residues 1-54: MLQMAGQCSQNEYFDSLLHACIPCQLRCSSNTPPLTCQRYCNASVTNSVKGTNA
# Results are given in words; binding and its absence hold for the method and conditions named. Some entries that bind do so weakly or less than the wild type.
# Target: BCMA (B cell maturation antigen) (UniProt Q02223)
# Assay: ELISA screening of phage display library, three rounds
row,Binder,binding
1,anti-BCMA single domain antibody clone BH59 (VHH) VHH: QEVLMESGGGLVQAGESLRLSCAASGRAISSIVMAWWRQTPGAEREFVASINRWGGTPYYSHSVKGRFTITRDHAKNTIHLQMNNLKSADTAVYYCAAASTLDSGYDYWGQGTLVTVS,binds
2,anti-BCMA single domain antibody clone BH60 (VHH) VHH: QEQLVESGGGSVQPGGSLRLSCVVSGGIFTINDMAWFRQAPGKQRELVAHISRSGSTYYRDFVKGRFTISRNNAKNTSYLQMNNLKPEDTATYYCNSIDRPLSYGQGTQVTVS,binds
3,anti-BCMA single domain antibody clone BH80 (VHH) VHH: QEQLVESGGGSVQPGGSLRLSCVVSGGIFTINDMAWFRQAPGKQRELVAHISRSGSTYYRDFVKGRFTISRNNAKNTSYLQMNNLKPEDTATYYCNSIDRPLSYGQGTLVTVS,binds
4,anti-BCMA single domain antibody clone BH81 (VHH) VHH: QVHLVESGGGLVKAGGSLRLSCVVSGITLSSYSMAWFRQAPGKQRELVAHISRSGSTYYRDFVKGRFTISRNNAKNTSYLQMNNLKPEDTATYYCNSIDRPLSYGQGTQVTVS,binds

# Results, then the binder that gave them:
row,binding,Binder
1,binds,anti-BCMA single domain antibody clone BH87 (VHH) VHH: QEVLMESGGGLVQAGESLRLSCAASGRAISSIVMAWWRQTPGAEREFVASINRWGGTPYYSNSVKGRFAITRDHAKNTIHLQMNNLKSADTAVYYCAAASTLDSGYDYWGQGTLVTVS
2,binds,anti-BCMA single domain antibody clone BH86 (VHH) VHH: QEVLMESGGGLVQAGESLRLSCAASGRAISSIVMAWWRQTPGAEREFVASINRWGGTPYYSNSVKGRFAITRDHAKNTIHLQMNNLKSADTAVYYCAAASTLDSGYDYWGHGTQVTVS
3,binds,anti-BCMA single domain antibody clone BH82 (VHH) VHH: QERLVESGGGSVHAGGSLRLSCVASGGIFTINDMAWFRQAPGKQRELVAHISRSGSTYYADFVKGRFTISKNNAKNTSYLQMNSLKPDDTATYYCNSIDRPLSYGQGTLVTVS
4,binds,anti-BCMA single domain antibody clone BH83 (VHH) VHH: QERLVESGGGSVHAGGSLRLSCVASGGIFTINDMAWFRQAPGKQRELVAHISRSGSTYYADFVKGRFTISKNNAKNTSYLQMNSLKPDDTATYYCNSIDRPLSYGQGTQVTVS
5,binds,anti-BCMA single domain antibody clone BH84 (VHH) VHH: QVQLVESGGGSVQPGGSLRLSCVVSGGIFTINDMAWFRQAPGKQRELVAHISRSGSTYYRDFVKGRFTISRNNAKNTSYLQMNNLKPEDTATYYCNSIDRPLSYGQGTQVTVS
